Consider 25 compounds from the supplement of paper PMC8256030.

Each structure is given as a SMILES string. Where “and” joins values, the source holds several entries; their conditions need not be identical. Equal entries are not always repeated. This is one part of the list. This data set is noisy: repeats of one test often differ as much as different tests do.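 HEK293T cells were given each compound shortly before transfection with a reporter in which red mCherry is followed by the SARS-CoV-2 frameshift element and then GFP in the −1 frame, so GFP appears only after frameshifting.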

The test system of the test is HEK293T. Nature of the test: percent viability (nuclei count) relative to control; higher = more viable cells. Particulars: 10 µM; 24 h.
As for `C[C@]12CCC(=O)C=C1CC[C@@H]1[C@@H]2[C@@H](O)C[C@@]2(C)[C@H]1CC[C@]2(O)C(=O)COP(=O)(O)O`, the percent viability came to 145%.
Take `CC1(C)S[C@@H]2[C@H](NC(=O)[C@H](C(=O)O)c3ccsc3)C(=O)N2[C@H]1C(=O)O` [Ticar]: the percent viability is 255%.
Regarding `Cc1c(C(N)=O)cc([N+](=O)[O-])cc1[N+](=O)[O-]` [dinitolmide], the percent viability was 268%.
Consider `CCCCCCOC(=O)NC(=N)c1ccc(NCc2nc3cc(C(=O)N(CCC(=O)OCC)c4ccccn4)ccc3n2C)cc1`, for which the percent viability was determined as 284%.
For the compound `O=CN(O)CCCP(=O)(O)O` [fosmidomycin], the percent viability amounted to 96.8%.
`CC[C@@H]([C@H](C)O)n1ncn(-c2ccc(N3CCN(c4ccc(OC[C@@H]5CO[C@@](Cn6cncn6)(c6ccc(F)cc6F)C5)cc4)CC3)cc2)c1=O` [Posaconazole]: the percent viability was determined as 410%.
Consider `OC1(c2ccc(Cl)c(C(F)(F)F)c2)CCN(CCCC(c2ccc(F)cc2)c2ccc(F)cc2)CC1` [penfluridol], for which the percent viability came to 219%.
To `CCN(CC)CC(=O)Nc1c(C)cccc1C(=O)OC` [tolycaine] belongs 65%; to `COc1cc(/C=C/C(=O)N2CCN(CC(=O)N3CCCC3)CC2)cc(OC)c1OC` [cinepazide], 184%; to `Cc1cn([C@H]2C=C[C@@H](CO)O2)c(=O)[nH]c1=O` [stavudine], 165%.
Regarding `OCCOCCN1CCN(C(c2ccccc2)c2ccc(Cl)cc2)CC1` (stereo not given) [hydroxyzine], the percent viability was 179% and 294%.
In the case of `NC(=O)CCC/N=C(\c1ccc(Cl)cc1)c1cc(F)ccc1O` [progabide], the percent viability was 303%.
For the compound `COc1ccc([C@]2(C#N)CC[C@@H](C(=O)O)CC2)cc1OC1CCCC1` [cilomilast], the percent viability turned out to be 180%.
With `CC(C)(C)c1cc(C(C)(C)C)c(NC(=O)c2c[nH]c3ccccc3c2=O)cc1O` [Kalydeco], the percent viability amounted to 299%.
Take `CCCCCC[C@@H](CCC)C(=O)O` [arundic acid]: the percent viability was 71%.
Consider `N[C@@H](Cc1ccc(O)cc1)C(=O)O` [tyrosine], for which the percent viability was 301%.
For `COc1ccc(/C=C/C(=O)Nc2ccccc2C(=O)O)cc1OC`, the percent viability came out at 138%.
As for `CN(C(=O)C(Cl)Cl)c1ccc(OC(=O)c2ccco2)cc1`, the percent viability was 310%.
For the compound `CC(C)CCCC(C)NC(C)C` (stereo not given) [iproheptine], the percent viability turned out to be 86.7%.
Consider `C#C[C@]1(O)CC[C@H]2[C@@H]3[C@H](C)CC4=C(CCC(=O)C4)[C@H]3CC[C@@]21C` [tibolone], for which the percent viability is 313% and 168%.
On to `C#C[C@]1(O)CC[C@H]2[C@@H]3CCC4=CC(=NO)CC[C@@H]4[C@H]3CC[C@@]21CC` (mixture of isomers) [Norelgestromin], for which the percent viability worked out at 309%.
Consider `Oc1ccc2ccccc2c1`, for which the percent viability was 415%.
For the compound `O=C(O)C(=O)O.[NH-][C@@H]1CCCC[C@H]1[NH-].[Pt+2]` [Oxaliplatin], the percent viability is 277%.
As to `CC1(C)S[C@@H]2[C@H](NC(=O)Cc3ccccc3)C(=O)N2[C@H]1C(=O)O`, the percent viability was determined as 131%.
With `Cc1ncc([N+](=O)[O-])n1C` [dimetridazole], the percent viability amounted to 218%.
